Experimental data taken from patent publication US20170349886A1 (VEGENICS, published 2017).
These are yes or no findings as the source states them, for the method shown. Some results given as binding are weak or reduced against the parent protein; the word gives no strength.

Tests used:
Human VEGF-D [1] = molecular target: T1, Human VEGF-D (human, UniProt O43915 93-201, limits assumed); test: SPR
T1 sequence (looked up): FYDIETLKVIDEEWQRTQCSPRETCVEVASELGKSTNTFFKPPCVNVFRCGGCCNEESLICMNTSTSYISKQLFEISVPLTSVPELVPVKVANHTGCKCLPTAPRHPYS

Human VEGF-D [2] = molecular target: T1, Human VEGF-D; test: ELISA (FIG. 2A and 2B)
Human VEGF-D [3] = molecular target: T1, Human VEGF-D; test: ELISA; ligand coated at 2 µg/mL, trap 0 to 10 µg/mL, anti-human IgG-HRP
Human VEGF-D [4] = molecular target: T1, Human VEGF-D; test: ELISA: VEGF-D (2 µg/mL) coated on the plate, VGX-300 titrated, detected with rabbit anti-human IgG-HRP and TMB

Measured: binding

B1: VGX-300 (Fc fusion)
chain: YSMTPPTLNITEESHVIDTGDSLSISCRGQHPLEWAWPGAQEAPATGDKDSEDTGVVRDCEGTDARPYCKVLLLHEVHANDTGSYVCYYKYIKARIEGTTAASSYVFVRDFEQPFINKPDTLLVNRKDAMWVPCLVSIPGLNVTLRSQSSVLWPDGQEVVWDDRRGMLVSTPLLHDALYLQCETTWGDQDFLSNPFLVHITGNELYDIQLLPRKSLELLVGEKLVLNCTVWAEFNSGVTFDWDYPGKQAERGKWVPERRSQQTHTELSSILTIHNVSQHDLGSYVCKANNGIQRFRESTEVIVHE
notes: only Ig-like domains I-III were in the molecule; Produced by transient expression in CHO or HEK cells; also called Parent; VGX-300 parent; not shown: Fc region gamma chain (detected with anti-human IgG)
binds: Human VEGF-D [1] | Human VEGF-D [2] | Human VEGF-D [3] | Human VEGF-D [4]
